Assay results as given in US7906520B2, “Methods for treating pain” (The General Hospital Corporation, priority 2003, dated 2011).
At least one compound was matched to its structure with a doubt left.

Columns and labels:
[1] = test system: CFA-induced paw inflammation; test: CFA model of inflammatory pain: Hargreaves test and paw weight; format: in vivo, rat; conditions: intrathecal BH4, rats with pre-existing heat hypersensitivity
Description: FIGS. 11A-11E are a series of graphs showing the effect of DHAP on thermal hyperalgesia in the CFA model which is a model for inflammatory pain. […] On the left end of the graph, two doses of DAHP (180 mg/kg i.p.) were injected, the first 30 minutes before injection of CFA into the hindpaw, the second 4 hours after CFA (indicated with arrows D1 and D2). On the right, a single dose (dotted arrow D1) of DAHP (180 mg/kg i.p.) was injected 24 h after induction of paw inflammation without any treatment during the first 24 h following CFA injection. […] In FIGS. 11C-11D, the effects of systemically administered DAHP (180 mg/kg i.p. single dose; 11C) are compared with the effects of a single intrathecal dose (1 mg/kg i.t.; 11D) which was administered via a lumbar spinal catheter. In both cases, treatment was started 24 hours after CFA injection into the hindpaw. […]
FIG. 12 is a bar graph showing the increase of the paw weight of the inflamed paw compared with the contralateral paw. Paw weight was determined 48 hours following CFA injection. […]
FIGS. 15A and 15B show the effect of the sepiapterin reductase inhibitor, N-acetyl-serotonin (NAS) on thermal hyperalgesia in the CFA model. […] Paw weight was determined 48 hours following CFA injection. […]

[2] = test system: naïve rats; test: Response to tactile and heat stimuli in naïve rats; format: in vivo, rat; conditions: intrathecal BH4, naïve rats
Description: FIGS. 13A and 13B are a series of graphs showing the effects of DAHP on the response to tactile (13A) and heat stimuli (13B) in naïve rats. A single dose of DAHP (180 mg/kg i.p.) or vehicle was injected at time “zero”.
Hypersensitivity was induced using the CFA model of paw inflammation. In these experiments, BH4 was injected at time “zero” after measurement of baseline paw withdrawal latency.

## C[C@H](O)[C@H](O)[C@H]1CNc2nc(N)[nH]c(=O)c2N1 [BH4, tetrahydrobiopterin]
[1]
  heat hypersensitivity in CFA-induced paw inflammation: induced heat hypersensitivity in the ipsilateral, but not contralateral, paw
[2]
  paw withdrawal latency to thermal stimulus (Hargreaves): reduces the paw withdrawal latency
